Chains of the proteins cited; added tags and fusions are not shown. Lines headed by an entry give the natural chain unless they say otherwise; changes in a name come on top. Residues count along the entry.
UniProt O14656, residues 21-332: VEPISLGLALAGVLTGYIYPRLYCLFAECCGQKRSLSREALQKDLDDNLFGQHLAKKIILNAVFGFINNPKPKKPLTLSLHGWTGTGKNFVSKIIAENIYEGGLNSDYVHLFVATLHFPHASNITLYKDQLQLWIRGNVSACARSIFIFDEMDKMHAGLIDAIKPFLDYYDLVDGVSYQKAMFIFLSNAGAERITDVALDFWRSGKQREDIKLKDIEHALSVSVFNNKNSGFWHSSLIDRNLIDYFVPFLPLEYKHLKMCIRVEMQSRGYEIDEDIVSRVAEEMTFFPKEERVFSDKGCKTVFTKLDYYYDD
UniProt P39685: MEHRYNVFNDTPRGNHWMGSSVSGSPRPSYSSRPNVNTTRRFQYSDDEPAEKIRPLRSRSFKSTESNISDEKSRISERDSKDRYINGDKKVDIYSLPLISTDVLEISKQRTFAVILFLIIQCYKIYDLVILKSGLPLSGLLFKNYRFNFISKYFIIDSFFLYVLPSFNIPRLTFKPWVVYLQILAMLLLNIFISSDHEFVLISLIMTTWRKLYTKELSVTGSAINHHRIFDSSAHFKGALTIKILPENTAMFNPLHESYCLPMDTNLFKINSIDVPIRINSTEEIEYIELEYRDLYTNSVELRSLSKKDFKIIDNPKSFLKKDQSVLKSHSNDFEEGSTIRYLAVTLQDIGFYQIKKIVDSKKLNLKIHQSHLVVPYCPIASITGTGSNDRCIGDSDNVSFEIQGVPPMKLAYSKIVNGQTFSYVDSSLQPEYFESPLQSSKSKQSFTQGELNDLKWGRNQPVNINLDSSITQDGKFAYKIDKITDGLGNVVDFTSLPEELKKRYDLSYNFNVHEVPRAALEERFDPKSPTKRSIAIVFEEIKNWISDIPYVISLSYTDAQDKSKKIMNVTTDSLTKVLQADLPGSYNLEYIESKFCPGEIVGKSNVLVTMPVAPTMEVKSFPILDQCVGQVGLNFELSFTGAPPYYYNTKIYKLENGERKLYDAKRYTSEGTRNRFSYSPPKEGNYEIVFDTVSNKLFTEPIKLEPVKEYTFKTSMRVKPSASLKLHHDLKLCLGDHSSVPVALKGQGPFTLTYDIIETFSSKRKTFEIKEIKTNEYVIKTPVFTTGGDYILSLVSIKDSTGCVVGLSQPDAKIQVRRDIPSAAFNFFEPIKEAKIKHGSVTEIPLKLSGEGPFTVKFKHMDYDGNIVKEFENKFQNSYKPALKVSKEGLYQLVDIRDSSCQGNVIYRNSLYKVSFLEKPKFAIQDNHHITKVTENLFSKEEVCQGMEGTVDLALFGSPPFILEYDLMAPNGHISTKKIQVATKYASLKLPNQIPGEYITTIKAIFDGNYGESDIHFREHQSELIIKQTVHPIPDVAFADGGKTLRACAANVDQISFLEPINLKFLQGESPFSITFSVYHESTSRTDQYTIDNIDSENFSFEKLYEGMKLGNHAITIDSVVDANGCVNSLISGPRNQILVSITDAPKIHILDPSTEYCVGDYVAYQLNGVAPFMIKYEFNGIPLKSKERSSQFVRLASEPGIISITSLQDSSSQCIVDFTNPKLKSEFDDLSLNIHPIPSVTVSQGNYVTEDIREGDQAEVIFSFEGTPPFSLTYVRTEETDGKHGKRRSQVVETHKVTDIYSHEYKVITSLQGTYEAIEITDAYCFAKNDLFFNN
UniProt P47054: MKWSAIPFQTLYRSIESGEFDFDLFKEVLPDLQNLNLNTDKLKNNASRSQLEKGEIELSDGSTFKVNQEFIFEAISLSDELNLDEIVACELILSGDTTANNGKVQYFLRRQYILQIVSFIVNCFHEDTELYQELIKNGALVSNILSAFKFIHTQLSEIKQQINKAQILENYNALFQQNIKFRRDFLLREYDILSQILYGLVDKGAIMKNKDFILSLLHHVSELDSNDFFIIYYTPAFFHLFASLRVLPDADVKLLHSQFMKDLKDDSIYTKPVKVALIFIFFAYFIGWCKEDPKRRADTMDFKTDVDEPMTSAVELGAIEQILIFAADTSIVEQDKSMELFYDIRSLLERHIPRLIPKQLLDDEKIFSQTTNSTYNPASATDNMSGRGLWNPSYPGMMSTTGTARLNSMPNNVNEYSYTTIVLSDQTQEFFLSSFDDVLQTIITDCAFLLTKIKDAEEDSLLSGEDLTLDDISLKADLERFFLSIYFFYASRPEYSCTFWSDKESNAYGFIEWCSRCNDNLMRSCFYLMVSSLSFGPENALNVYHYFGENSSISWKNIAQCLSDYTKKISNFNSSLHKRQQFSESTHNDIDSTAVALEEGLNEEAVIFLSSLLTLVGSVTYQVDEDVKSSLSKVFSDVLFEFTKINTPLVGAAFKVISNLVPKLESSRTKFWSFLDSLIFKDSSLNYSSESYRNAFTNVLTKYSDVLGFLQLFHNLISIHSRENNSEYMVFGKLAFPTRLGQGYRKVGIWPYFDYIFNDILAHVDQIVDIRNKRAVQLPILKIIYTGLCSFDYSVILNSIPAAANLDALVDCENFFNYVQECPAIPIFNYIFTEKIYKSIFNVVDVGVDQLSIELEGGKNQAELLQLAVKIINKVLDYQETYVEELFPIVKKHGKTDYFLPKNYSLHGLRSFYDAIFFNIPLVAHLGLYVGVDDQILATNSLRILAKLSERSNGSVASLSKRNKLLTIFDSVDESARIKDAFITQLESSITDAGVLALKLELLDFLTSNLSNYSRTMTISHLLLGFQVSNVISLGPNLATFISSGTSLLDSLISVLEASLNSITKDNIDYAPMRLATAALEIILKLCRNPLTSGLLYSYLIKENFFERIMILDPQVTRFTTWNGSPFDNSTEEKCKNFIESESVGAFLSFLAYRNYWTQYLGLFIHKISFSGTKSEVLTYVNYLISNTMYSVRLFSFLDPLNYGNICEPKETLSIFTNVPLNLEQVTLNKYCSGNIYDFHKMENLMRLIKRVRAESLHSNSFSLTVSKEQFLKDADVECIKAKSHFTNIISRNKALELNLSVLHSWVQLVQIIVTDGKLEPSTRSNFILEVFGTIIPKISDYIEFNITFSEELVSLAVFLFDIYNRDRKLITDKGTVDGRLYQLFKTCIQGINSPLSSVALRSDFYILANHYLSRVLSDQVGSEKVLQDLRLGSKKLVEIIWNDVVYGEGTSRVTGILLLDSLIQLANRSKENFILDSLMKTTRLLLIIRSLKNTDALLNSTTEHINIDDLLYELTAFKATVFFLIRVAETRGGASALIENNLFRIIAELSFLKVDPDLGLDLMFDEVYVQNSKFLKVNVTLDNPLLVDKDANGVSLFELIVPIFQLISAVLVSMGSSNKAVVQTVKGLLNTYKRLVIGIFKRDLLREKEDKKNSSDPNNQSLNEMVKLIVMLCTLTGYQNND
UniProt P16474, residues 43-682: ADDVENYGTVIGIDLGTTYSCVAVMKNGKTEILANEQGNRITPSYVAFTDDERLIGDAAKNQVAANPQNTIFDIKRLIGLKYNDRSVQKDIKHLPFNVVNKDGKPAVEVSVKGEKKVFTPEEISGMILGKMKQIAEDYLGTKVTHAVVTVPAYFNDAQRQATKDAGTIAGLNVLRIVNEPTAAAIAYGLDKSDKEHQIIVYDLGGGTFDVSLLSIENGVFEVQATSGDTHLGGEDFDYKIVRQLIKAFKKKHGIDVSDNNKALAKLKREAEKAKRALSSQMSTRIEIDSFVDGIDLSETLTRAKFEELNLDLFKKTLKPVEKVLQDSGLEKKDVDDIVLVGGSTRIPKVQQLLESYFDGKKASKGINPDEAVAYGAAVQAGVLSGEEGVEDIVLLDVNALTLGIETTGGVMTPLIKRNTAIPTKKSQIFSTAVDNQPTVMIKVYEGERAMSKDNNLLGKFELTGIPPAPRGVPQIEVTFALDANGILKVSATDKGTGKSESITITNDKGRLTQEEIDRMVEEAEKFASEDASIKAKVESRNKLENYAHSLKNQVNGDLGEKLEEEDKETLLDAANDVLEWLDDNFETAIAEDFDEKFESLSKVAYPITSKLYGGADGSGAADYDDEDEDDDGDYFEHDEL

In article doi:10.1101/421909:

B1: Mnn2 (enzyme, UniProt P38069 1-597)
chain: MLLTKRFSKLFKLTFIVLILCGLFVITNKYMDENTSVKEYKEYLDRYVQSYSNKYSSSSDAASADDSTPLRDNDEAGNEKLKSFYNNVFNFLMVDSPKGSTAKQYNEACLLKGDIGDRPDHYKDLYKLSAKELSKCLELSPDEVASLTKSHKDYVEHIATLVSPKGTYKGSGIATVGGGKFSLMAFLIIKTLRNMGTTLPVEVLIPPGDEGETEFCNKILPKYNSKCIYVSDILPRETIEKFVFKGYQFKSLALIASSFENLLLLDADNFPIKPLDNIFNEEPYVSTGLVMWPDFWRRTTHPLYYDIAGIAVDKKKRVRNSRDDITPPAVYTKDLKDLSDVPLSDLDGTIPDVSTESGQLMINKTKHLATALLSLFYNVNGPTWYYPIFSQKAAGEGDKETFIAAANFYGLSFYQVRTRTGVEGYHDEDGFHGVAMLQHDFVQDYGRYLNAMESIGNKYGGTKSADAIKFDKNYSLEKYTEEFFDNEDLNAKNHVDVMFIHSNFPKFDPYDLSKSNFLTTNGKPARSYTALKKVKNYDIELENFKVLNEYVCVNKNPFKYLDDLLGQDKTEWKRVCGYITDRLAFLESTHDKAIAGK
B2: Kre5 (enzyme, UniProt P22023 18-1365)
chain: WTYSLRYGIPESAQVWSILVHLLGDVDNQLLTNLYPLVTGLDDEIDIQENLVALTSNVLRERYDKEDVADLLELYASLYPMGMIQHDISSNAEQDDANSSYFVLNGNRYEKPDDVFYLKSKDLTIQQKVPDVDVIQPYDVVIGTNSEAPILILYGCPTVIDSDFEEFNRNLFMEAMNGEGKFRFIWRSTCSLDGKSVEYPLTHPLEITLQNGSRMSSIPQLKKILYTVPKEILVGADNDDQLHDLEPEELRELDLRVTSLISEFYQYKKDITATLNFTKSIVNNFPLISKQLIKVSSVNKDIITSNEELNSKGFDYNMLGLYINGQNWKITSLTPYNLLTALKTEYQSLLKITNLLQELEPSKCILDSKFLLNKFSQFSLGKLQNLQPIKMDLHTIPGFSESVIYFNDIESDPQYDELVNSVQAFFDKSKFGELPEIKQNWSEIIFVIDFARLEDSEVKEALGGLVRAVNVVSQGYPQRVGLLPFSSDSDKSVVNKIYELKNSTDNLTELKSFLETMLLADGLSANAKHSKHIPVPDVFHLLDELQIDETSIIINGEIYPFRKNAWNYLIAKVIKKDTEFIRKELSNSSPKNKQISVRDLLHYKSANLRHNKYTPNYFADSVYSSVNNTALESVCSERIGYYTKNEEYNLLHTITLVDDFGSIHALKRLRNLLHTSFVGVRIRIIHVGDISDIWYQLRGSLSQKDPIGSINTFIDALKLKKVKSHTYKKSGLNQLGLHKWLPDIPLFELQKGSFIALNGRFIHLDQNEVPETEHFEAIIKREALRTIDSVFALDLLFPGFSQEIINPDLIEMISSILTRLFYQGTHIYNNGIDYTTESSLPRMDLSEFFRPNNLTMFEDGKSASIDLLLILDPLEERTQMILSLVEQFRPLKFVNIQVILMPTLELNIVPIRRIYVDDADIVKSITSEDSRSDPEVDIEMDVPNSFIVDNNYRIKKLLIELHSFSSKTVLSTGNIDGMGGVCLALVDSAGNIIDKTTTMKTFGYGQFHTDKFLKGCYIKSCDSRYTVQSFSTDGHPDFIPSDSLDILSYNPQKIAVKISEEPTHEEEYEEGRNNDTIINIFTILESGPDEEERYMQMILSILSKCPETQKVNFFILDQPFISDTLRKSCEYINSSDEMRGNVIFLNYEWPQWLRPQRFSSRRRDVSRFLFLDVLLPQNISKVLYMSPTEVPLDPFDIFQFQGLKRAPLGLFRMSGDGYWKEGYWEKMLRENNLEFYSTEPAFLVNLERFRELDAGDKYRIHYQRISTDAMSLVNIGQDLVNNLQLEVPIRFLKGSYKKKLVINDECVSEWKKKINKFASSPGDEDVPGESVSSKYQDSDNAAPLHDEL
B3: Mps3 (protein, UniProt P47069 1-682)
chain: MNNSNEHRREEAGAANEQMPYNKAVKSAYADVLKDKMNREQEISLRAIKKGIYTDGGETDNYDMDKENDSAYEMFKKNLDFPLDQHNDDDDDDPYIEDNGQETDGYSDEDYTDEADKSFIEDSDSDSYDLESNSDFEENLESSGEAKKLKWRTYIFYGGLFFVFYFFGSFLMTTVKNNDLESHSSGATSSPGKSFSNLQKQVNHLYSELSKRDEKHSSELDKTVKIIVSQFEKNIKRLLPSNLVNFENDINSLTKQVETISTSMSELQRRNHKFTVENVTQWQDQLVKQLDTHLPQEIPVVINNSSSLLIIPELHNYLSALISDVIESPGIGTAGSAESRWEYDLNRYVKEILSNELQYIDKDYFIQEMNRRLQSNKQEIWEEITNRLETQQQQQQQQVQQDYSNVPQQYSSILMKRLIHQIYNSNQHQWEDDLDFATYVQGTKLLNHLTSPTWRQGSGVQPIELLTDSKQSSSTYWQCENEPGCSWAIRFKTPLYLTKISYMHGRFTNNLHIMNSAPRLISLYVKLSQTKEIKALQTLANQYGFGQHHKRDRNYIKIAKFEYRLTDSRIRQQMYLPPWFIQLKPLVRSIVFQVDENYGNKKFISLRKFIINGVTPQDLQIIENNEFPVLLGDTPEYGVTQNTDEGKRKVLLSKPPYASSSTSTKFHPASNVPSFGQDELDQ
B4: Mps2 (protein, UniProt P53159 1-387)
chain: MSNGAFDAIFEYAWGQIDKPISGDFIYGKDLPKLIEIIENIFQKAQKSGSYELRLPLFSEINKDLFRTFSNTKTFFKIHKEEFDDIFFNLVNHPLREILENAFIGVDSIPSDFIVSMNLNSPSKFLVENKNKNTEGAGISTPRKKLTESPIKLLSRNNIGKALEVQVEELKRELTAKQSLLQENERQVSELKIRLETYQEKYASIQQRFSDLQKARQVEDNQNSSRTSDPGSPLVTGIDQKAILEEFRRRLQRQTDTISFLKDQIRRERGLNCSNDKVSHSKRKHATTDGDGTFKNFISAVPSNIWVKATIRIIVCFALLAGVLPYIRKYVYAHDTPSQNSRLQLSWWENSGILSKIVWFFEDQTDLETEYRSNANVDDAYSRVFGI

What was measured:
Experiment in all cases: affinity purification with mass spectrometry
[1] = biological target: TorsinA-ΔE-GFP (human) (UniProt O14656)
[2] = biological target: TorsinA-GFP (human) (UniProt O14656)
[3] = biological target: TorsinA-GFP (human) (UniProt O14656); remark: listed apart in the source
[4] = biological target: TorsinA-ΔE-GFP (human) (UniProt O14656); remark: listed apart in the source

Molecule | binding [1] | binding [2] | binding [3] | binding [4]
Pom152 (from UniProt P39685 1-1337) | no binding | binds |  | 
Nup192 (from UniProt P47054 1-1683) |  | binds |  | 
Kar2 (from UniProt P16474 43-682) | binds | binds |  | 
B1 |  |  | binds | 
B2 |  |  | binds | 
B3 |  |  | binds | binds
B4 |  |  | no binding | no binding

Read-outs that look alike come from different tables or passages of the source. Results are given in words; binding and its absence hold for the method and conditions named. Binding seen in cells or lysates may run through a third protein. Here binding means that the protein was enriched with, or labelled near, the bait; the list need not be complete. For some assays here: No binding means not detected with the bait.
